{"source": "paper PMC7411736", "about": "“Effects of Sesamin, the Major Furofuran Lignan of Sesame Oil, on the Amplitude and Gating of Voltage-Gated Na^+ and K^+ Currents” (Molecules, 2020)", "tested_on": "voltage-gated Na+ currents (INa) in pituitary GH3 cells", "experiment": "Whole-cell patch-clamp of voltage-gated Na+ current evoked by depolarization from −80 to −10 mV", "assay_type": "cell-based, rat", "settings": "0.1–100 μM", "experimental": "In an initial step of the experiments, we examined the effects of SSM on the amplitude and gating of INa in response to rapid membrane depolarization. Cells were bathed in Ca^2+-free Tyrode’s solution containing 10 mM tetraethylammonium chloride (TEA) and the recording pipette was backfilled with a Cs^+-containing solution. […]\nOn the day of each experiment, cells were dispersed with a 1% trypsin/EDTA solution and a few drops of cell suspension were rapidly placed in a custom-built recording chamber mounted on the stage of an inverted DM-IL microscope (Leica; Major Instruments, Kaohsiung, Taiwan). […] We measured ion currents in the whole-cell model of a standard patch-clamp technique with dynamic adaptive suctioning (i.e., decremental change of suction pressure in response to a progressive increase in the electrode resistance), with the aid of an RK-400 (Bio-Logic, Claix, France) or an Axopatch-200B (Molecular Devices, Sunnyvale, CA) patch amplifier. […] During the measurements, the recorded area on the vibration-free table was shielded by using a Faraday cage (Scitech, Seoul, South Korea). […]", "data": [{"compound": "c1cc2c(cc1[C@H]1OC[C@H]3[C@@H]1CO[C@@H]3c1ccc3c(c1)OCO3)OCO2", "note": "[SSM, [1S-(1α,3aα,4α,6aα)] -5,5’- (tetrahydro-1H,3H-furo [3–4-c]furan-1,4-diyl)bis-1,3-benzodioxole]", "values": [{"measurement": "Hill coefficient (nH) for inhibition of peak INa", "value": 1.2}, {"measurement": "Hill coefficient (nH) for inhibition of sustained INa", "value": 1.2}]}]}
